# According to the supplement of paper PMC12819154, “High-throughput peptide-centric local stability assay extends protein–ligand identification to membrane proteins, tissues and bacteria” (Nature Structural & Molecular Biology, 2025):
# The chains behind the UniProt entries cited, without tags or fusion partners. Where a name states a change or a piece, a line headed by the entry shows the natural chain unless it says otherwise.
# UniProt Q8CF02: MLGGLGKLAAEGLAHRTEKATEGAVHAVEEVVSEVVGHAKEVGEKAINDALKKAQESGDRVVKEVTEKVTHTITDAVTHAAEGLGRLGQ
# UniProt Q8C4X7: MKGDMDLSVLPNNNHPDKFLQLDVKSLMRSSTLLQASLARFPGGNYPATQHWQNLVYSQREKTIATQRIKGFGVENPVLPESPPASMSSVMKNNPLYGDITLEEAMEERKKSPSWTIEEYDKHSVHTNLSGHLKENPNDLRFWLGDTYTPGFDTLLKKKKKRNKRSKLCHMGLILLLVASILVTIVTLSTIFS
# UniProt Q8BM72: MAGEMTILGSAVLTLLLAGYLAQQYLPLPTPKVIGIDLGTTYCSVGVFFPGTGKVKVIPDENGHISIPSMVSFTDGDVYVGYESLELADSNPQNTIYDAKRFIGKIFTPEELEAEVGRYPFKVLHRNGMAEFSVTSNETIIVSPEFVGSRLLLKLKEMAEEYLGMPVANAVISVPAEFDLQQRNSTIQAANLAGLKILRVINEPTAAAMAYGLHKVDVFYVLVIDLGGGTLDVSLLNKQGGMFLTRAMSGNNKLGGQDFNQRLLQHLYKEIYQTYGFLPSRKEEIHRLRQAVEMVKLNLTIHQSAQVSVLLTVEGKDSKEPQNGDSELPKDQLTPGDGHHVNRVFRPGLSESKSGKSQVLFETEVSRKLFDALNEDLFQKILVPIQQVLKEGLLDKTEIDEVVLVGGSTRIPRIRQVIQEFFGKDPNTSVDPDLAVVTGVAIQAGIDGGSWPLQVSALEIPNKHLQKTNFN
# UniProt Q8BHN3: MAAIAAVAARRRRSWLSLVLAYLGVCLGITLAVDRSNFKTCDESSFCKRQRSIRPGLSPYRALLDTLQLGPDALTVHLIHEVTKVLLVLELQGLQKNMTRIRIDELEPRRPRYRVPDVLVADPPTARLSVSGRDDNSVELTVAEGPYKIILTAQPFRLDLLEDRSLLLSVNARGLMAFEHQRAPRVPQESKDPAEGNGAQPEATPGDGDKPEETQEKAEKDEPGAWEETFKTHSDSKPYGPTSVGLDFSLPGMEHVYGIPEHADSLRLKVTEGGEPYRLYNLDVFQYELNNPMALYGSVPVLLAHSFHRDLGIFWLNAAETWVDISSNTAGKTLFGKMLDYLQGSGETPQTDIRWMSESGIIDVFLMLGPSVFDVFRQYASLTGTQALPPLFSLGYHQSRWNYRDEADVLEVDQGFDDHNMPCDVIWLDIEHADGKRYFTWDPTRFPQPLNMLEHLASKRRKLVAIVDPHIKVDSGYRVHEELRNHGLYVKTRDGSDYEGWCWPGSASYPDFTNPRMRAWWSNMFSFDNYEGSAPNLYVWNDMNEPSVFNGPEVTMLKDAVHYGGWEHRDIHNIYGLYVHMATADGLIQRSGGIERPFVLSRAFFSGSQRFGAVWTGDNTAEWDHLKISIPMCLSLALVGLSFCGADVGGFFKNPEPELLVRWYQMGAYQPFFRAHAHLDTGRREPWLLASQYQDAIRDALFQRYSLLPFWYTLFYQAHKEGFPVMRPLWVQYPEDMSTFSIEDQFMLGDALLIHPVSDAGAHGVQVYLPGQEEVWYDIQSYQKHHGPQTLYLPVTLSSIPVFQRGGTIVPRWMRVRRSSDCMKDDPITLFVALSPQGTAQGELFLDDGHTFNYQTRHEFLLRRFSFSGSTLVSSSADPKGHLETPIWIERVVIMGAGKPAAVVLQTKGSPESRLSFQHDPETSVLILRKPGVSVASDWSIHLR
# UniProt Q8BYH7: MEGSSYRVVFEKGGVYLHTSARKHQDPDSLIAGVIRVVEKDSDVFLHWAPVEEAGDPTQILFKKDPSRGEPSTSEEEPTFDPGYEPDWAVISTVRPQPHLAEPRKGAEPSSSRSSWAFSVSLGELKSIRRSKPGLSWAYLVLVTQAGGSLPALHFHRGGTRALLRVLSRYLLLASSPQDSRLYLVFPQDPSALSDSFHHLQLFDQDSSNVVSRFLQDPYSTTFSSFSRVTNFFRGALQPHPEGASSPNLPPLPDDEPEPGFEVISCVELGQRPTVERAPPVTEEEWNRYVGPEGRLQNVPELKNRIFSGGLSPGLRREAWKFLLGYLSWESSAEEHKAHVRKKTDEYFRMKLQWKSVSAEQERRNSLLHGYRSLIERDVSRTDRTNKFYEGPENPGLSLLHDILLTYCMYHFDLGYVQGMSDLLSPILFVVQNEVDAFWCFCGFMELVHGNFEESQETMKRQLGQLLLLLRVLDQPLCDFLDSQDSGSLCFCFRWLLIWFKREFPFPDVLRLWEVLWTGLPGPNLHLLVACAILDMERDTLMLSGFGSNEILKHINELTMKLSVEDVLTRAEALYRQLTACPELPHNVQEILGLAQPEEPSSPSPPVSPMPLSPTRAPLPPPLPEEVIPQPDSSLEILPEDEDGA
# UniProt Q8C5R2: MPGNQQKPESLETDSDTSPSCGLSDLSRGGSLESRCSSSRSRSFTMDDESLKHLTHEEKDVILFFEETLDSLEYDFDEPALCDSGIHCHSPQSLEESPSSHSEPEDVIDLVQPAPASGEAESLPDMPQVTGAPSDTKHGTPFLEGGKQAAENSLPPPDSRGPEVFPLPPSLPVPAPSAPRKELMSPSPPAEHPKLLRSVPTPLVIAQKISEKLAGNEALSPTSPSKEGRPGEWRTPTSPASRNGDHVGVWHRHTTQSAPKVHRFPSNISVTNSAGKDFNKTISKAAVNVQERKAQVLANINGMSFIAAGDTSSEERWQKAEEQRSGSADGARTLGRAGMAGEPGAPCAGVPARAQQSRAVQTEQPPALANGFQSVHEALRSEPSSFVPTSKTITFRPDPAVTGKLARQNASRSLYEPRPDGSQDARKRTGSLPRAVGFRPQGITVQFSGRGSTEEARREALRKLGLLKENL
# UniProt Q8C163: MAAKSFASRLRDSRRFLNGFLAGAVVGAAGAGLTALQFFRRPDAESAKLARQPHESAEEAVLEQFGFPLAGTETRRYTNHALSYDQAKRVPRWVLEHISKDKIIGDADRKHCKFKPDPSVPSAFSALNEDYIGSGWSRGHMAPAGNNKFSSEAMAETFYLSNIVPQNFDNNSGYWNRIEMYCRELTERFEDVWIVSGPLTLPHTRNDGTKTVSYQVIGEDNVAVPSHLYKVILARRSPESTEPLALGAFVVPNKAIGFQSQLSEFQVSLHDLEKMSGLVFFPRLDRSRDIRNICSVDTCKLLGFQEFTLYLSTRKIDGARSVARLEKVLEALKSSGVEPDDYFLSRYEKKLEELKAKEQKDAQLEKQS
# UniProt Q8BZW8: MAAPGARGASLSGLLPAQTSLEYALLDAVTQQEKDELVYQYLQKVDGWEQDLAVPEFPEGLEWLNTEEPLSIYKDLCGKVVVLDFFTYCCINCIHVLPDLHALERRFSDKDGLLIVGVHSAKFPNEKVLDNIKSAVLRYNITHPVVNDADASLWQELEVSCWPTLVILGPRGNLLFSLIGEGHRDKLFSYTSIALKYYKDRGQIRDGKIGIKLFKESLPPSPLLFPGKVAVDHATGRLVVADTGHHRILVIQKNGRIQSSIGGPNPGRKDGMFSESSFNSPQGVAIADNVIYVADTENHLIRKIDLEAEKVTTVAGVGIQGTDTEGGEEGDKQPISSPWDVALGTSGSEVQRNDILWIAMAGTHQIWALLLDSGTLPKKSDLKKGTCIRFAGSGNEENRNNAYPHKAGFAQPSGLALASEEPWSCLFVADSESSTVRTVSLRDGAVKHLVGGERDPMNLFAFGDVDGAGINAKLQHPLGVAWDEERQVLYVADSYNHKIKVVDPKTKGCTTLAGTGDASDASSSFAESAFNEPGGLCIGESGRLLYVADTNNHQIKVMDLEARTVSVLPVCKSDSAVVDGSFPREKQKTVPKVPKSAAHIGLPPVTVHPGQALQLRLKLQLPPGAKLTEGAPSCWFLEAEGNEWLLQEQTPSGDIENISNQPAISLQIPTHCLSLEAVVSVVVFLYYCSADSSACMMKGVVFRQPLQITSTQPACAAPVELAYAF
# UniProt Q8CEI1: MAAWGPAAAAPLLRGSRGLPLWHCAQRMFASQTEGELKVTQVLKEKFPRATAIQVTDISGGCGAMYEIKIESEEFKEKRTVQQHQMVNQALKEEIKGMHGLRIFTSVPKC
# UniProt Q8BJ05: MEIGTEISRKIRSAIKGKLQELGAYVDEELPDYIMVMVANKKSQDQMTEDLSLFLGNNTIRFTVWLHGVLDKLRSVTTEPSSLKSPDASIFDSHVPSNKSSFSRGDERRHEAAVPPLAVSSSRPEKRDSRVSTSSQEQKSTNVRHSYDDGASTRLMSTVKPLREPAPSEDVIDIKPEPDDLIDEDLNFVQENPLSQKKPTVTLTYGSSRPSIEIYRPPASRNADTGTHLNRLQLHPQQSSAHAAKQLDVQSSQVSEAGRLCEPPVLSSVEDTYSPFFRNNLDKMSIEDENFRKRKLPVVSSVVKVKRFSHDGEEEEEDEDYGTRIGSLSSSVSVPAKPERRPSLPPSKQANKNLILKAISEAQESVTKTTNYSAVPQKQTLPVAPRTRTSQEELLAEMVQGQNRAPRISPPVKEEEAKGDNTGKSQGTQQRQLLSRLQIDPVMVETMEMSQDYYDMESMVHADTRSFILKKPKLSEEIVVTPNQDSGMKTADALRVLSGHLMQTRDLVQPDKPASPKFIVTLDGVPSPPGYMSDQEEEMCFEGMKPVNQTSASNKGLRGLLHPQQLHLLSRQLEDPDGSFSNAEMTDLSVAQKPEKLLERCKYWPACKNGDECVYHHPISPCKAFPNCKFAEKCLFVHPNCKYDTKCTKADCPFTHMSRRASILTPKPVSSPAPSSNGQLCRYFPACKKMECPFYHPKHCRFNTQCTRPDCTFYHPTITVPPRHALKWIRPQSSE
# UniProt Q8BU14: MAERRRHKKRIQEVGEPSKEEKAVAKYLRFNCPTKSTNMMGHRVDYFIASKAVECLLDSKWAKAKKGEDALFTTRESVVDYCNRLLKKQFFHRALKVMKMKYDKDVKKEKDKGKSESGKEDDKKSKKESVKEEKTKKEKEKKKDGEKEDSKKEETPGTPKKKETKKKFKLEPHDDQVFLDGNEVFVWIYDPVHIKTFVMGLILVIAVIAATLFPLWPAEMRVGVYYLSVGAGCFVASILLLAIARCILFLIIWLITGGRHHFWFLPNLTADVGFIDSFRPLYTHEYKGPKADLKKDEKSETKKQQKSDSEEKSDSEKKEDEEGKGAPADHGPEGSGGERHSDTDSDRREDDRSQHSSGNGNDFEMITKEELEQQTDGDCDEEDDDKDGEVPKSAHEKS
# UniProt Q8C025: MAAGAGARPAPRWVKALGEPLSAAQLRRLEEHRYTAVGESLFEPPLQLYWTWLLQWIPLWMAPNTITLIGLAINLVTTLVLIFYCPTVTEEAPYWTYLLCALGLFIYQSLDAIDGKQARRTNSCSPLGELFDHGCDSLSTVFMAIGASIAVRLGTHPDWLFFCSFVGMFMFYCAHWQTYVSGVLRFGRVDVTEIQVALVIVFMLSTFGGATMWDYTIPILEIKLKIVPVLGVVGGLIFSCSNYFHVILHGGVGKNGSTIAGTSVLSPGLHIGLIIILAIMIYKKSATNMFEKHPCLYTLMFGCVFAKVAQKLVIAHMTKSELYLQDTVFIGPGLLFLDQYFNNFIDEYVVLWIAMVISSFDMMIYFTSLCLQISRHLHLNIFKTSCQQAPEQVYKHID
# UniProt Q8BMG8: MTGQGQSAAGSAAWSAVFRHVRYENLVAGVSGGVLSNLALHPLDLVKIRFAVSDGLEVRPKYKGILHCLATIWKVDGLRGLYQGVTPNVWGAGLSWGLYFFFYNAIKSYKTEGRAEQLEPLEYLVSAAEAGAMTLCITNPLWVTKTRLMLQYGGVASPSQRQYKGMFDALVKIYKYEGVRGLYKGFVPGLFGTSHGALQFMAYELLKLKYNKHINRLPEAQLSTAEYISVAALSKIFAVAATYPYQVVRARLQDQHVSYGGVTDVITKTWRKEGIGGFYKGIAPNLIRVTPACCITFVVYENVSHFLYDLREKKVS
# UniProt Q8BH61: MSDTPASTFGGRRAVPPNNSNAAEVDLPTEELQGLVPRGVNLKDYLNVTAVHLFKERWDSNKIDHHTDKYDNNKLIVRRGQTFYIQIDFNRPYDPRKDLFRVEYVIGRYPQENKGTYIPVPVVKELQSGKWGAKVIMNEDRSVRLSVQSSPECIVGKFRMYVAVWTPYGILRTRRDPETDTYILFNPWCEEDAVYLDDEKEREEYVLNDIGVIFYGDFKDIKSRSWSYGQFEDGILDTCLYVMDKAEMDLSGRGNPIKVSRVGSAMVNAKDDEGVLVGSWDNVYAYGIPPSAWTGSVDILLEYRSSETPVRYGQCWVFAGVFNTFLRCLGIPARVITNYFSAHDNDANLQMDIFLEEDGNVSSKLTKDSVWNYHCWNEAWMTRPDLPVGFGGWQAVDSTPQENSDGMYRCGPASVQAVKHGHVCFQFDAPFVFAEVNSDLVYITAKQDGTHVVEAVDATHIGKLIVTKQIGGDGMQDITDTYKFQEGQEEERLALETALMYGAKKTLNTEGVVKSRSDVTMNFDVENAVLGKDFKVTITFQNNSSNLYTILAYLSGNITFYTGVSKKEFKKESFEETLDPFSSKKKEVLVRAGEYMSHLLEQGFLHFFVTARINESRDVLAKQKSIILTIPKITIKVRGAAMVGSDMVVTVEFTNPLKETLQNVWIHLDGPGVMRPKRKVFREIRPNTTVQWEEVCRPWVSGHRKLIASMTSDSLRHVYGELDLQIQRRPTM
# This is one part of the list. Most entries show no effect beyond the scatter of the controls.
# Compound: CN[C@@H]1C[C@H]2O[C@@](C)([C@@H]1OC)n1c3ccccc3c3c4c(c5c6ccccc6n2c5c31)C(=O)NC4 [staurosporine]
# Assay: log2 fold change of pooled soluble protein (PISA), ligand vs vehicle (log2 ratio); higher = more thermally stabilized
# Conditions: ligand concentration: 20 uM; assay format: PISA pool 52.9/55.5/58.6 C
row,Target,log2 fold change of pooled soluble protein
1,UniProt Q8BU85,-0.11
2,UniProt Q8CF02,0.0669
3,UniProt Q8CGB6,-0.0821
4,UniProt Q8C4X7,0.156
5,UniProt Q8C1D8,0.21
6,UniProt Q8BM72,-0.182
7,UniProt Q8BH35,0.124
8,UniProt Q8BYM8,-0.00402
9,UniProt Q8BTX9,0.16
10,UniProt Q8BND5,-0.154
11,UniProt Q8CDM8,0.155
12,UniProt Q8BXB6,0.0128
13,UniProt Q8BU33,0.105
14,UniProt Q8BHN3,-0.012
15,UniProt Q8BYH7,0.432
16,UniProt Q8C142,0.217
17,UniProt Q8C5R2,0.0598
18,UniProt Q8C163,0.00676
19,UniProt Q8BZW8,-0.158

row,Target,log2 fold change of pooled soluble protein
1,UniProt Q8BPZ8,-0.0261
2,UniProt Q8BTJ4,0.204
3,UniProt Q8BIQ5,0.146
4,UniProt Q8CEI1,-0.173
5,UniProt Q8BJ05,-0.057
6,UniProt Q8BKI2,0.0532
7,UniProt Q8BHH1,-0.375
8,UniProt Q8BL86,0.134
9,UniProt Q8BHG1,0.122
10,UniProt Q8BPM0,-0.422
11,UniProt Q8BTS4,0.0858
12,UniProt Q8CBC4,0.0365
13,UniProt Q8BU14,-0.153
14,UniProt Q8C025,-0.144
15,UniProt Q8BMG8,0.252
16,UniProt Q8C180,-0.21
17,UniProt Q8BH61,-0.0285
18,UniProt Q8BWS5,0.0496

# A few values from above:
# log2 fold change of pooled soluble protein, UniProt Q8C163 is entered as 0.00676
# log2 fold change of pooled soluble protein, UniProt Q8BWS5 is entered as 0.0496
